Data on 1 sequence can be found in article PMC9016352.

The chains behind the UniProt entries cited, without tags or fusion partners.
UniProt Q13148, whole entry: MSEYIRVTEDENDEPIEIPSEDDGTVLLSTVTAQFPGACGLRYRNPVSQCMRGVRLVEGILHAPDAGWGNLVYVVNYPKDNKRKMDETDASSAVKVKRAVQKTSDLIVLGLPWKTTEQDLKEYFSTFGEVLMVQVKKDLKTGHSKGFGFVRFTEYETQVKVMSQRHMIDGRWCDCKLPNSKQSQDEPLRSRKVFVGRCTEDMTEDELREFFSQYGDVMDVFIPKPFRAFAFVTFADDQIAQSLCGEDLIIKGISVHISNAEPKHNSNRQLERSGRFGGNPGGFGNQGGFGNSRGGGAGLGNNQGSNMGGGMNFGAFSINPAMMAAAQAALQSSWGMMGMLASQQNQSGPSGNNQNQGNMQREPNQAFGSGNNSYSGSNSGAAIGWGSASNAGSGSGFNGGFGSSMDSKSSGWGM

The exact form of at least one protein or probe is not confirmed.

The target of one series is TDP-43-MBP-His6 12A (UniProt Q13148). Kind of series: EMSA. Conditions: comparable to Wt; 20 mM NaPO4 pH 8, 150 mM NaCl, 1 mM DTT, 5 mM MgCl2, 0.5 mg/ml BSA, 0.1 mg/ml yeast tRNA, 5% glycerol, 1 U/ul RNase inhibitor, 20 min RT; 16 nM Cy5-RNA, 0-1.6 uM protein; recombinant protein; protein details: C-terminal TEV site-MBP-His6; label: 5' Cy5. On the technique in general: Mobility shift assays separate free from complexed probe on a gel.

The target in another series is TDP-43-MBP-His6 12D (UniProt Q13148). Kind of series: EMSA. Conditions: comparable to Wt; 20 mM NaPO4 pH 8, 150 mM NaCl, 1 mM DTT, 5 mM MgCl2, 0.5 mg/ml BSA, 0.1 mg/ml yeast tRNA, 5% glycerol, 1 U/ul RNase inhibitor, 20 min RT; 16 nM Cy5-RNA, 0-1.6 uM protein; recombinant protein; protein details: C-terminal TEV site-MBP-His6; label: 5' Cy5.

For UGUGUGUGUGUGUGUGUGUGUGUG [(UG)12 RNA], the binding result with TDP-43-MBP-His6 12A and with TDP-43-MBP-His6 12D was “binds” in each case.
